Test [1] has as its target CSD, the cold-shock domain of YB-1 (UniProt Q28618). In words: atomic force microscopy; protein multimerization in the absence of RNA, imaged by AFM (Figure S4B); both purified.
Test [2] shares this target. In words: cross-linking; protein alone, in the absence of RNA; 5 μg in 10 μl of 20 mM Hepes-NaOH pH 7.6, 50 mM NaCl, 0.5 mM PMSF, 0.1% glutaraldehyde, 10 min at room temperature; 12% SDS-PAGE, Coomassie (Figure S4A); both purified.
Test [3] concerns the target YB-1, full length (UniProt Q28618). Kind of test: cross-linking; YB-1 cross-linked in the presence of mRNA, which serves as a scaffold (Figure S2B); both purified.
Test [4] shares this target. In words: cross-linking; YB-1 cross-linked on supercoiled DNA; multimers resistant to DNAse once formed (Figure S2B); both purified.
For test [5] the target is unchanged. In words: atomic force microscopy; YB-1 constructs (100-500 nM) with supercoiled pBR322 DNA (2 nM) on mica; 20 mM Hepes pH 7.6, 50 mM KCl, 4 mM MgCl2; multimers seen on the DNA, at DNA crosses; both purified.
Test [6] concerns the target YB-1-tr, a truncated form comprising the first 219 amino acid residues (UniProt Q28618). Described as above.

Amino acid sequences for entries named in this document (tags omitted). A change or cut given only in a name is not applied to a line headed by its entry.
UniProt Q28618: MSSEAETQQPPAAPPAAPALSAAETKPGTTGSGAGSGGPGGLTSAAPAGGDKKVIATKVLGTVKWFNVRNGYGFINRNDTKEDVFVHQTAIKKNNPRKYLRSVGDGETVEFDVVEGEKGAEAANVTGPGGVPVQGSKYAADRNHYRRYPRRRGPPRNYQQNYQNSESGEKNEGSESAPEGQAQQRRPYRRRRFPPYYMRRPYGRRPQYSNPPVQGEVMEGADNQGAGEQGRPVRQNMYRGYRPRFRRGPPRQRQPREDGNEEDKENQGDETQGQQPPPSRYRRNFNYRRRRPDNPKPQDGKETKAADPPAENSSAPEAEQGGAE

These are yes or no findings as the source states them, for the method shown. Some results given as binding are weak or reduced against the parent protein; the word gives no strength.

“CSD, the cold-shock domain of YB-1 (from UniProt Q28618 58-128) (domain or fragment)”: the binding entry in test [1] and in test [2] was “binds” in each case.
In the case of “YB-1, full length (from UniProt Q28618 1-324)”, the binding result was “binds” with YB-1, full length [3]; “binds” with YB-1, full length [4]; “binds” with YB-1, full length [5].
“YB-1-tr, a truncated form comprising the first 219 amino acid residues (from UniProt Q28618 1-219) (domain or fragment)”: in test [6], the binding result was “binds”.

These data come from paper PMC4627072.
